Laboratory results as given in the supplement of paper PMC3334620.
Whole data set: some 33,000 sequences, median “E-score (-0.5 to 0.5)” near -0.0014, cut for the highest 2% near 0.25. The list shows a part of the results.

molecular target: T1, Cad1 (UniProt P24813); experiment: PBM E-score (8-mer binding enrichment) (E-score (-0.5 to 0.5)); higher = stronger / more preferred TF binding; conditions: protein concentration: 100 nM; construct: GST-full length
T1 sequence: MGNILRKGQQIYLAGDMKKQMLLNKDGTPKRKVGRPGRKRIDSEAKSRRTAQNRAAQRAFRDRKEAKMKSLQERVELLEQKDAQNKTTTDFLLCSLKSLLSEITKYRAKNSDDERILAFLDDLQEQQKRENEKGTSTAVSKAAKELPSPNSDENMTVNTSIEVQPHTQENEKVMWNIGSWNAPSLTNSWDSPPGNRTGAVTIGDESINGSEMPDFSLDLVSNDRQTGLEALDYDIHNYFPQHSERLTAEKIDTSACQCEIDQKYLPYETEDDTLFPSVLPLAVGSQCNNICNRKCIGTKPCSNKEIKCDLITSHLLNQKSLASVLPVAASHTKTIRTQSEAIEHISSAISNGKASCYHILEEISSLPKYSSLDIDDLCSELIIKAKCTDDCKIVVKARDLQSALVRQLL
Summary of the method: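 GST-tagged yeast TFs (full-length or DNA-binding domain) were made by PURExpress in vitro transcription/translation and applied at about 100-200 nM to universal all-10-mer Agilent arrays. The arrays were made double-stranded by primer extension, on fresh or once-stripped slides. Bound protein was detected with fluorescent anti-GST, and scans were normalised with masliner. Each ungapped eight-base word, pooled with its reverse complement, received an E-score (modified Wilcoxon-Mann-Whitney statistic) from the Universal PBM Analysis Suite.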

| Sequence | PBM E-score |
| --- | --- |
| CTCAGTGC | 0.0558 |
| CAGGGAGC | -0.239 |
| CATAACTA | -0.00461 |
| GAGGAGAA | -0.0942 |
| ACATCCAA | -0.114 |
| GTCCTCCA | -0.1 |
| GTTTATTA | 0.293 |
| ACGGCACA | -0.114 |
| AACGGACT | -0.0248 |
| CCTAGGAG | -0.104 |
| TAATAGTA | 0.175 |
| ATCGGAAG | -0.0563 |
| GGGCGGAA | 0.0225 |
| GGATGAAC | 0.0496 |
| CCGATCAA | -0.0815 |
| ACCAAGCG | -0.00622 |
| CCCTAAAA | -0.228 |
| GTCGGCCA | -0.264 |
| TACGATGA | 0.00075 |
| ACCCTACC | -0.0642 |
| CTTGTGCA | -0.0115 |
| AGAGCGTA | -0.0972 |
| CCTGTAGC | -0.149 |
| GCCTTAAC | -0.087 |
| CTCTGGGC | -0.162 |

| Sequence | PBM E-score |
| --- | --- |
| CGAGGCGC | 0.108 |
| AACACCGG | 0.0782 |
| AACCGGGG | -0.245 |
| AGGGGTAA | -0.068 |
| AGTGAGCA | -0.0577 |
| ATCGAGAG | -0.0825 |
| CGACGCGC | 0.142 |
| CGAACCGC | -0.0247 |
| TATCATAA | 0.172 |
| AATGACGC | -0.0439 |
| GACGCGCA | 0.0756 |
| ACTATTTC | 0.174 |
| ACCCCCCG | -0.446 |
| GACTAGTA | -0.117 |
| ATTTATTA | 0.186 |
| TTTGAAAA | 0.161 |
| AATCAGAA | -0.0255 |
| AATTTGAG | 0.035 |
| ATCTCCAT | -0.123 |
| GGACTGAC | -0.103 |
| GGCCAGCC | -0.161 |
| CACTGTCG | -0.21 |
| ACAAGCTC | -0.108 |
| CGAAGGAC | -0.083 |
| TGGACAAA | 0.178 |

| Sequence | PBM E-score |
| --- | --- |
| CCGTTTCG | 0.143 |
| CGCACCGA | -0.0919 |
| ACAGTTCG | 0.142 |
| AATTCGAC | -0.207 |
| CGTTGCAC | 0.04 |
| GATATCAC | 0.086 |
| CCACTGAC | -0.168 |
| CGCGTGTA | 0.0728 |
| CGATTTTC | 0.158 |
| ACGCGTCG | 0.246 |
| AGATCTGA | 0.0298 |
| CCTAGTCC | -0.231 |
| TCTGTACA | 0.111 |
| GTCGCTCA | -0.074 |
| AAGGCGGG | -0.17 |
| CTCAGCCC | -0.21 |
| AGCTACGA | -0.0329 |
| CATTCTCC | -0.0219 |
| TCCTTCAA | -0.00792 |
| ACGATGTG | 0.058 |
| TCCATCCA | -0.0893 |
| CTCCACCC | -0.217 |
| TGTGAAAA | 0.103 |
| ACATATAG | -0.0418 |
| AAGGAACT | -0.0734 |

Some values from the entries so far.
Value of ATCGGAAG under PBM E-score: -0.0563
Value of AGCTACGA under PBM E-score: -0.0329
Value of AACGGACT under PBM E-score: -0.0248
Value of AACACCGG under PBM E-score: 0.0782

6 records drawn at random from the list so far:

| Sequence | PBM E-score |
| --- | --- |
| TCTGTACA | 0.111 |
| AGATCTGA | 0.0298 |
| GCCTTAAC | -0.087 |
| AACCGGGG | -0.245 |
| TGGACAAA | 0.178 |
| CATAACTA | -0.00461 |

Continuation.

| Sequence | PBM E-score |
| --- | --- |
| CGAATTGA | 0.0375 |
| GATTGCAC | 0.05 |
| AAGATGGT | -0.107 |
| ACAGGACT | -0.0713 |
| GATCAGGA | -0.015 |
| GATAGATA | -0.0537 |
| ACGTAAAG | 0.0971 |
| AAACGACA | 0.0852 |
| AGTATTGA | 0.0931 |
| CCTCTGCG | -0.147 |
| ACTTTATA | -0.0756 |
| ACATGTGA | -0.105 |
| CTGTTGAC | 0.0587 |
| CAGGGTGG | -0.185 |
| ATACAAGC | -0.0237 |
| CGACTGGC | -0.0974 |
| CACATATC | 0.127 |
| ATCTGAGA | -0.0755 |
| GATGACCA | 0.0747 |
| ATTCTACC | -0.0584 |
| CAAAATAA | 0.177 |
| AGATACGC | -0.0142 |
| ACGTCCTC | -0.0293 |
| ATGTTCGA | 0.115 |
| ATTGACTC | 0.0149 |

| Sequence | PBM E-score |
| --- | --- |
| GCTCGGTA | -0.203 |
| AGCATAAC | 0.035 |
| TACGGATA | 0.116 |
| GTCAGGGA | -0.125 |
| GGCAGACA | -0.169 |
| GCCCCAAA | -0.0417 |
| TCGCTTCA | 0.0104 |
| GCTTGAAA | 0.0794 |
| GCGCTTCC | -0.024 |
| ATAACGTC | 0.0313 |
| ACCGCAAG | 0.0347 |
| CTTTGTCA | 0.278 |
| AGACTTCC | -0.038 |
| GATCATAC | 0.0317 |
| AGGAATGG | -0.127 |
| AATACACC | 0.255 |
| CGACCTAG | 0.0727 |
| GGCTTTCA | -0.0154 |
| GTTTCACA | 0.08 |
| CGTTGGAG | -0.134 |
| CCTAGAGC | -0.276 |
| CACGCCTA | -0.213 |
| CGGATTAC | 0.166 |
| ACGCACAA | 0.0589 |
| AGTCAAAG | -0.225 |

| Sequence | PBM E-score |
| --- | --- |
| AATGAAGG | -0.104 |
| ACGTGCCC | -0.00982 |
| GCCGCCCA | -0.0607 |
| GACTGCCA | 0.144 |
| AGTCTGGA | 0.0431 |
| AACAAACG | -0.0741 |
| GCTTCCTA | 0.164 |
| CCTCGATA | 0.218 |
| CAGAGAAC | -0.0414 |
| TTAGGGAA | 0.0134 |
| AGGCACGA | -0.154 |
| ATGAAAGC | -0.00029 |
| TCTCTACA | 0.118 |
| GCGGTCCC | -0.243 |
| GCGCACAC | 0.0207 |
| CGCAACGC | -0.0184 |
| CAAGTCAC | -0.125 |
| GAGCACCC | -0.102 |
| GGGGATAC | -0.265 |
| ACAGTTTA | -0.0213 |
| CAGATTTC | 0.117 |
| CCGTAATC | 0.143 |
| CACTTGGC | -0.185 |
| CCTATTCA | -0.136 |
| AACTCCCC | -0.167 |

| Sequence | PBM E-score |
| --- | --- |
| TCTACTCA | -0.043 |
| CCTTAGAG | -0.368 |
| CCGTCGTA | -0.027 |
| CCTCAGCA | -0.0312 |
| GAGAGGAC | -0.133 |
| AGGCGATG | -0.0126 |
| CGAACTCG | 0.208 |
| GAACTGTC | -0.00719 |
| TTATAAAA | 0.191 |
| ACTCGCAG | 0.0863 |
| AACAATGC | 0.166 |
| CAGAGGCC | -0.228 |
| CACTGCGG | 0.0398 |
| TCTCCACA | -0.0481 |
| GCGCACGA | 0.205 |
| GGATATCA | 0.0725 |
| GTATGGAC | 0.00732 |
| GAAAATCC | 0.0577 |
| ACGAGATA | -0.0139 |
| AAGGACCC | -0.24 |
| AAGACCCT | -0.156 |
| GCATTATA | 0.101 |
